Source: PubChem BioAssay AID2685 (National Center for Advancing Translational Sciences (NCATS), 2010)
Several values for one entry are separate records, joined by “and”; a condition that tells them apart may be missing. Equal values may be shown once. The list shows a part of the results. Shown are side measurements of this screen, not its main read-out; they come without a call. Most of these compounds were active or inconclusive in the main read-out, so they are no random draw. Words in brackets tell the shape of the fitted curve; partial curves, single points and poor fits give uncertain potencies.

Test: qHTS Assay for Lipid Storage Modulators in Drosophila S3 Cells;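 as to cell number change: cells counted by Cell Tracker Red CMTPX staining in the red channel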
Conditions: BODIPY lipid droplet fluorescence, 18-24 h; for cell number change: measured here: cell count max response, cells fed with added oleic acid
Outline: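 Drosophila S3 cells got compounds at several concentrations plus oleic acid (400 uM solution). Laser-scanning cytometry with 488 nm excitation read lipid droplets at 500-530 nm and cells at 575-640 nm. Percent activity was relative to 20 uM Triacsin C.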

[1] = measured here: lipid fluorescence (Fed channel) AC50, cells fed with added oleic acid
[2] = measured here: cell number channel AC50, cells fed with added oleic acid

| Structure (SMILES) | cell number change | AC50 [1] | AC50 [2] |
| --- | --- | --- | --- |
| N#CCOC(=O)C1CCN(S(=O)(=O)c2ccc3c(c2)OCCO3)CC1 | -25% | 0.731 µM [rising, full curve, poor fit] |  |
| COc1ccccc1C1C(C(C)=O)=C(O)C(=O)N1c1ccc(O)cc1 (centres undefined) | -13.9% | 5.8 µM [rising, single point] |  |
| CCOc1ccc(/C=N/NC(=O)Cc2csc(Nc3cccc(C(F)(F)F)c3)n2)c(OCC)c1 | -5.79% |  |  |
| CC(C)(CO)NC(=O)CCCOc1ccc(Cl)cc1Cl | -203% | 6.51 µM [falling, single point] | 23.1 µM [falling, partial curve] |
| CN(C(=O)COC(=O)C1COc2ccccc2O1)C1(C#N)CCCCC1 (centres undefined) | -63.3% | 29.1 µM [falling, single point] | 29.1 µM [falling, single point] |
| O=C(Nc1cccc(-n2cnnn2)c1)c1ccoc1COc1ccc(Cl)cc1 |  | 32.6 µM [falling, partial curve, poor fit] |  |
| O=C(O)COc1cccc(NC(=O)C2CCCO2)c1 (centres undefined) | -5.31% |  |  |
| O=C(CC1N=C2c3ccccc3N=C(SCc3ccccc3Cl)N2C1=O)NCc1ccco1 (centres undefined) | -12.2% | 0.58 µM [falling, single point] | 0.116 µM [falling, full curve, poor fit] |
| CCOc1ccc(C(=O)N/N=C(\c2ccccc2)c2ccccn2)cc1 |  | 6.51 µM [falling, single point] |  |
| Cc1c(C(=O)NC2CCS(=O)(=O)C2)oc2ccccc12 (centres undefined) | -2.25% | 0.58 µM [rising, single point] |  |
| CCC(CC)C(=O)Nc1cccc(C(=O)NC(C)(C)C)c1 | 20.7% |  |  |
| CN1CCN(CC(O)COc2ccccc2)CC1 (centres undefined) | 0.351% |  |  |
| CCCCC(CC)C(=O)Nc1ccc(S(=O)(=O)N2CCCC2)cc1 (centres undefined) | -18.5% | 14.6 µM [falling, single point] |  |
| CCOc1ccc(C2Nc3ccccc3C(CC)(CC)O2)cc1 (centres undefined) | 11% | 1.16 µM [rising, full curve] | 0.461 µM [rising, full curve, poor fit] |
| O=C(CN(Cc1ccccc1)C(=O)CNS(=O)(=O)c1ccccc1)NCC1CCCO1 (centres undefined) | 24.8% |  |  |
| CCOc1c2ccc(C(=O)NCc3ccc(C(F)(F)F)cc3C(F)(F)F)cc2nn1C | 8.08% | 29.1 µM [rising, single point] |  |
| COc1ccc(Nc2nc(C)cc(C)c2C#N)c(OC)c1 | 14.7% | 29.1 µM [rising, single point] |  |
| CCn1c2nc(SCCN3CCOCC3)nnc2c2cc(C)cc(C)c21 | -32.6% | 4.11 µM [falling, full curve] | 9.2 µM [falling, partial curve] |
| Cc1ccc(-c2csc(N(Cc3ccco3)C(=O)c3cccs3)n2)cc1 | 10.3% | 0.58 µM [rising, full curve] | 0.82 µM [rising, full curve, poor fit] |
| Nn1c(SCC(=O)Nc2ccccc2F)nc2ccccc2c1=O | -14.4% |  |  |

Some of the entries above in another layout:
Structure (SMILES)	cell number change	AC50 [1]	AC50 [2]
O=C(O)COc1cccc(NC(=O)C2CCCO2)c1 (centres undefined)	-5.31%		
CCn1c2nc(SCCN3CCOCC3)nnc2c2cc(C)cc(C)c21	-32.6%	4.11 µM [falling, full curve]	9.2 µM [falling, partial curve]

Additional structures follow:

| Structure (SMILES) | cell number change | AC50 [1] | AC50 [2] |
| --- | --- | --- | --- |
| Cc1cc(=O)[nH]c(SCc2cn3ccccc3n2)n1 | 19.6% | 0.00411 µM [rising, partial curve, poor fit] | 0.411 µM [rising, full curve, poor fit] |
| Cc1cccc(C(=O)NNC2=C(C(=O)C(F)(F)F)CCC2)c1O | -47.3% |  | 29.1 µM [falling, single point] |
| NC1=NC[C@H](Cc2ccc(O)cc2)N1CCCCC1CCCCC1 | -45.1% | 29.1 µM [falling, partial curve, poor fit] | 32.6 µM [falling, single point] |
| COc1ccc(-c2cn(-c3ccccc3)c3[n+]2CCS3)cc1 | -4.81% and -8.11% | 461 nM [falling, single point] and 3.66 µM [rising, partial curve, poor fit] | 6.51 µM [rising, single point] and 184 nM [rising, full curve, poor fit] |
| CC(=O)Nc1ccc(C)c(NC(=S)Nc2ccc(F)cc2)c1 | -41.9% | 0.92 µM [falling, full curve] | 1.03 µM [falling, full curve] |
| CC(=O)c1cccc(NC(=O)C(C)OC(=O)c2ccc3ncsc3c2)c1 (centres undefined) | -14.7% | 4.11 µM [falling, single point] |  |
| O=C(CCc1ccc(S(=O)(=O)NCc2ccccc2)cc1)NCc1cccnc1 |  | 0.146 µM [rising, full curve, poor fit] |  |
| CCCCCc1cc(=O)oc2c(C(CCN3CCN(c4ccccc4)CC3)c3ccc(N(C)C)cc3)c(OC)cc(OC)c12 (centres undefined) | -28.3% | 29.1 µM [falling, single point] |  |
| COC(=O)c1ccc(OC(=O)C2CSC3(C)CCC(=O)N23)cc1 (centres undefined) | -16.5% |  |  |
| C/C(N)=C(/C#N)C(=O)CSc1nc2ccccc2c(=O)n1-c1ccc(C)cc1 | 5.56% | 0.731 µM [rising, full curve, poor fit] |  |
| COC(=O)/C(=C/c1ccc2c(c1)c1ccccc1n2C)NC(=O)c1ccccc1 | 44.6% | 29.1 µM [rising, single point] | 32.6 µM [rising, single point] |
| Cc1cc(/C=C(\C#N)C(=O)Nc2ccc(Cl)cc2)c(C)n1-c1ccc(N2CCOCC2)c([N+](=O)[O-])c1 | 16.6% | 1.64 µM [rising, full curve, poor fit] |  |
| Cc1ccccc1COc1cccc(/C=N/NC(=O)c2nnn(-c3nonc3N)c2C)c1 | 24% |  |  |
| CC(C)OC(=O)CSc1nnc(-c2ccccn2)n1N | 24.7% |  |  |
| CC(=O)c1cccc(Nc2nc(N3CCOCC3)nc(N3CCOCC3)n2)c1 | 0.59% | 1.84 µM [rising, partial curve] | 3.26 µM [rising, single point] |
| Cc1ccccc1NC(=O)C1CC(=O)N(c2ccccc2F)C1 (centres undefined) |  |  | 0.0651 µM [rising, full curve, poor fit] |
| O=C(COC(=O)CNC(=O)c1ccc(Cl)c([N+](=O)[O-])c1)NNC(=O)c1ccccc1F | -19.7% |  |  |
| O=C(CSc1nnc(-c2cnccn2)n1Cc1ccco1)c1ccc(Cl)cc1 | 104% | 6.51 µM [falling, single point] | 2.31 µM [falling, partial curve] |
| CCCSc1ccc([C@H]2N[C@@](C)(C(=O)OC)[C@H]3C(=O)N(C)C(=O)[C@@H]23)cc1OC | 22.8% | 11.6 µM [rising, single point] |  |
| C[C@@]12C(=O)Nc3ccccc3C(=O)N1[C@H]1c3cc(Br)ccc3OC[C@@H]1[C@@H]2c1ccccc1 | 3.17% | 4.11 µM [rising, single point] |  |

Two entries from above, bar-delimited.
Structure (SMILES) | cell number change | AC50 [1] | AC50 [2]
O=C(CCc1ccc(S(=O)(=O)NCc2ccccc2)cc1)NCc1cccnc1 |  | 0.146 µM [rising, full curve, poor fit] | 
CCCCCc1cc(=O)oc2c(C(CCN3CCN(c4ccccc4)CC3)c3ccc(N(C)C)cc3)c(OC)cc(OC)c12 (centres undefined) | -28.3% | 29.1 µM [falling, single point] | 

The results go on.

| Structure (SMILES) | cell number change | AC50 [1] | AC50 [2] |
| --- | --- | --- | --- |
| Cc1cc(Nc2cccc(Cl)c2)n2ncnc2n1 | 42.4% | 5.17 µM [rising, full curve] | 25.9 µM [rising, single point] |
| Cc1ccc(NC(=O)CN(C)C(=O)Cc2ccc(Cl)cc2Cl)cc1 | -0.901% |  |  |
| CN1CCC(NC(=S)NC2CC2)CC1 | 26.9% | 0.0891 µM [rising, full curve, poor fit] |  |
| COc1ccccc1-c1nc(-c2ccc(Br)o2)no1 | -31.9% | 20.6 µM [rising, single point] | 0.184 µM [falling, full curve, poor fit] |
| O=c1c(Cc2c(F)cccc2Cl)c(O)ccn1CCc1ccccn1 |  | 11.2 µM [falling, partial curve] |  |
| O=C(CSc1nncs1)Nc1ccc(Cl)cc1C(F)(F)F | -3.7% |  |  |
| CCOC(=O)c1c(C)[nH]c(N=Nc2ccccc2C)c1C | -88.2% |  | 29.1 µM [falling, single point] |
| COc1cc(-c2noc(C)c2C#Cc2ccccn2)cc(OC)c1OC | -10.7% | 23.1 µM [rising, single point] |  |
| C=CCSc1nnc2n(-c3ccccc3OC)c(=O)c3c4c(sc3n12)CCC4 | -25.4% | 0.411 µM [rising, full curve] |  |
| Cc1ccccc1-n1c(Cn2c(=O)sc3ccccc32)nnc1SCC(N)=O | -66.7% | 29.1 µM [falling, single point] |  |
| O=C(NC1CCCC1)C(c1ccccn1)N(C(=O)c1csnn1)c1ccccc1F (centres undefined) | 7.14% | 0.13 µM [rising, partial curve, poor fit] |  |
| COc1ccc(NC(=O)Cn2cnc3sc(C)c(S(=O)(=O)N4CCN(C)CC4)c3c2=O)cc1OC | 4.59% | 4.61 µM [falling, single point] | 4.11 µM [falling, single point] |
| Cc1ccc(OCc2ccc(C(=O)NCc3cccnc3)cc2)cc1C | -1.84% | 29.1 µM [rising, single point] |  |
| COc1ccc(C(=O)n2cc(C(=O)c3cc(C)ccc3O)cn2)cc1 | 32.9% |  | 23.1 µM [rising, single point] |
| COc1cc(NC(=O)c2c(F)cccc2F)c(Cl)cc1Cl | -6.15% |  | 5.8 µM [rising, single point] |
| O=C(N/N=C/c1ccccn1)c1ccc(Cl)cc1 |  |  | 0.58 µM [rising, single point] |
| COc1ccccc1CN1CC(C(=O)NCc2nccn2C)CCC1=O (centres undefined) | 43.6% |  | 0.082 µM [rising, full curve, poor fit] |
| CC(=O)Nc1ccc(NC(=O)c2c(C)nc3ccccn23)cc1 | 0.163% | 3.26 µM [falling, single point] |  |
